Data published in PubChem BioAssay AID328 (DTP/NCI, 2004).
The list does not hold the whole screen: it gathers tests that were run many times, whatever their T/C, doses with no T/C, and many T/C values between a quarter and a half above the control. Other doses and runs of a compound stand elsewhere. T/C gives the treated animals as a percentage of the vehicle group. Some doses have a count of surviving animals in place of a T/C: the source files T/C as zero there, which appears to mark a toxic dose or a test without result, not a measured value. Some survivor counts are full or nearly so, which does not show that the dose was tolerated: survival well below the control is almost never listed, so the zero probably covers shortened survival too. Counts of survivors are from the toxicity check (mostly the fifth day) where no day follows; animals may have died later. Schedules are NCI's codes, read here as Q, the interval in days (D) or hours (H), X, the number of doses. Some entries hold several experiments; the results are listed from low to high. For survival time, the PubChem record calls one and a half times the control and up active, and a quarter to a half above the control has no call in these data; cut-offs in other NCI protocols can differ. Some T/C values carry the count of animals alive at the toxicity check (mostly the fifth day); where none is given, no animal had died by that day. Non-standard residues stand in square brackets, D forms with d. Residues, ends and D or L forms follow the SMILES beside them. ξ: configuration not given here. *: point of attachment. Nphe = O=C(O)CNCc1ccccc1; ξL = CC(C)CC(N)C(=O)O; Ms = CS(=O)(=O)*

Tested on: BDF1 mice, P388 leukemia ip, median survival T/C
Experiment: NCI In Vivo Anticancer Drug Screen. Data for tumor model P388 Leukemia (intraperitoneal) in B6D2F1 (BDF1) mice
Conditions: T/C endpoint: median survival time, higher T/C = longer survival
How it was run: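 Each value expresses how treatment altered survival: treated-mouse outcome over vehicle-mouse outcome, both groups bearing the transplanted tumour.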

[1] = dose: 12.5 mg/kg/injection, schedule: Q04DX003 (ip), vehicle: Klucel (hydroxypropylcellulose) (HPC)

With `C#CC[As+](c1ccccc1)(c1ccccc1)c1ccccc1` the survivor count (dose: 6.25 mg/kg/injection, schedule: Q01DX009 (ip), vehicle: Klucel (hydroxypropylcellulose) (HPC)) was 5 of 5, the T/C (dose: 6.25 mg/kg/injection, schedule: Q04DX003 (ip), vehicle: Klucel (hydroxypropylcellulose) (HPC)) was 127 and 130 % of control and the T/C (dose: 8.0 mg/kg/injection, schedule: Q04DX003 (ip), vehicle: Klucel (hydroxypropylcellulose) (HPC)) was 126 and 130 % of control. The survivor count (dose: 12.5 mg/kg/injection, schedule: Q01DX009 (ip), vehicle: Klucel (hydroxypropylcellulose) (HPC)) was 5 of 6, the T/C [1] was 127 % of control and the survivor count [1] was 5 of 6. For the same molecule, the survivor count (dose: 18.0 mg/kg/injection, schedule: Q04DX003 (ip), vehicle: Klucel (hydroxypropylcellulose) (HPC)) was 6 of 6, the survivor count (dose: 25.0 mg/kg/injection, schedule: Q01DX009 (ip), vehicle: Klucel (hydroxypropylcellulose) (HPC)) was 3 of 6 and the survivor count (dose: 25.0 mg/kg/injection, schedule: Q04DX003 (ip), vehicle: Klucel (hydroxypropylcellulose) (HPC)) was 4 of 6.
In the case of `SCc1ccccn1`, the survivor count (dose: 500.0 mg/kg/injection, schedule: Q01DX010 (ip), vehicle: carboxymethylcellulose (CMC)) is reported as 0 of 6.
With `CN(C)c1ccc(/C=C/c2ccnc3ccccc23)c(O)c1` the T/C (dose: 200.0 mg/kg/injection, schedule: Q04DX003 (ip), vehicle: saline with Tween-80) was 126 % of control and the T/C (dose: 400.0 mg/kg/injection, schedule: Q04DX003 (ip), vehicle: saline with Tween-80) was 141 % of control.
For `OC1OC(COC(c2ccccc2)(c2ccccc2)c2ccccc2)C(O)C(O)C1O` (stereo unspecified), the T/C (dose: 50.0 mg/kg/injection, schedule: Q01DX009 (ip), vehicle: saline) was 132 % of control, the survivor count (dose: 160.0 mg/kg/injection, schedule: Q01DX009 (ip), vehicle: saline) was 2 of 6 and the survivor count (dose: 200.0 mg/kg/injection, schedule: Q01DX009 (ip), vehicle: saline) was 5 of 6. The survivor count (dose: 400.0 mg/kg/injection, schedule: Q04DX003 (ip), vehicle: saline) was 2 of 6.
`COc1ccc2cc3[n+](cc2c1OC)CCc1cc2c(cc1-3)OCO2` was tested, and the survivor count (dose: 4.0 mg/kg/injection, schedule: Q01DX010 (ip), vehicle: steroid suspending solution) was 2 of 4, the T/C (dose: 8.0 mg/kg/injection, schedule: Q01DX010 (ip), vehicle: steroid suspending solution) was 140 % of control and the T/C (dose: 12.0 mg/kg/injection, schedule: Q01DX010 (ip), vehicle: saline) was 131 % of control. For the same molecule, the survivor count (dose: 24.0 mg/kg/injection, schedule: Q01DX010 (ip), vehicle: saline) was 2 of 6.
In the case of `CCc1c(Cl)c(C)cc(O)c1Cl`, the T/C (dose: 25.0 mg/kg/injection, schedule: Q01DX009 (ip), vehicle: gum acacia) is reported as 133 % of control, the T/C (dose: 37.0 mg/kg/injection, schedule: Q01DX009 (ip), vehicle: gum acacia) is reported as 129 % of control and the survivor count (dose: 100.0 mg/kg/injection, schedule: Q01DX009 (ip), vehicle: gum acacia) is reported as 5 of 6.
In the case of `CC(C)CC(NC(=O)CN(Cc1ccccc1)S(C)(=O)=O)C(=O)O` (stereo unspecified) (Ms-[Nphe]-[ξL]-OH), the T/C (dose: 25.0 mg/kg/injection, schedule: Q01DX009 (ip), vehicle: other) is reported as 133 % of control [5 of 6 alive], the T/C (dose: 100.0 mg/kg/injection, schedule: Q01DX009 (ip), vehicle: other) is reported as 136 % of control and the survivor count (dose: 400.0 mg/kg/injection, schedule: Q01DX009 (ip), vehicle: other) is reported as 6 of 6.
In the case of `ClCCN(CCCl)CCCN1c2ccccc2Sc2ccccc21`, the T/C (dose: 3.12 mg/kg/injection, schedule: Q04DX003 (ip), vehicle: saline with Tween-80) is reported as 138 % of control, the survivor count (dose: 25.0 mg/kg/injection, schedule: Q04DX003 (ip), vehicle: saline with Tween-80) is reported as 6 of 6 and the survivor count (dose: 50.0 mg/kg/injection, schedule: Q04DX003 (ip), vehicle: saline with Tween-80) is reported as 4 of 6 and 5 of 6. The survivor count (dose: 75.0 mg/kg/injection, schedule: Q04DX003 (ip), vehicle: saline with Tween-80) was 3 of 6 and 5 of 6.
In the case of `Clc1ccc2c(c1)Cc1cc(N=Cc3ccccc3Cl)ccc1-2`, the survivor count (dose: 42.5 mg/kg/injection, schedule: Q01DX001 (ip), vehicle: saline with Tween-80) is reported as 6 of 6 and the survivor count (dose: 85.0 mg/kg/injection, schedule: Q01DX001 (ip), vehicle: saline with Tween-80) is reported as 6 of 6.
`CN1c2ccc(Cl)cc2C(=O)NC1c1ccc([N+](=O)[O-])s1` (stereo unspecified) was tested, and the T/C (dose: 200.0 mg/kg/injection, schedule: Q01DX009 (ip), vehicle: saline with Tween-80) was 136 % of control and the survivor count (dose: 400.0 mg/kg/injection, schedule: Q01DX009 (ip), vehicle: saline with Tween-80) was 2 of 6.
With `Nc1ncnc2nc(-c3ccc(Br)cc3)[nH]c12` the survivor count (dose: 400.0 mg/kg/injection, schedule: Q01DX001 (ip), vehicle: saline with Tween-80) was 3 of 6.
For `COc1cc(C2c3cc4c(cc3C(O)C3COC(=O)C23)OCO4)cc(O)c1OC` (stereo unspecified), the T/C (dose: 1.0 mg/kg/injection, schedule: Q01DX009 (ip), vehicle: saline) was 130 % of control.
